From the supplement of paper PMC10849652
The list shows a part of the results. Residues, ends and D or L forms follow the SMILES beside them. *: point of attachment. Cbz = O=C(OCc1ccccc1)*

The chains behind the UniProt entries cited, without tags or fusion partners. Where a name states a change or a piece, a line headed by the entry shows the natural chain unless it says otherwise.
UniProt O60725, whole entry, looked up: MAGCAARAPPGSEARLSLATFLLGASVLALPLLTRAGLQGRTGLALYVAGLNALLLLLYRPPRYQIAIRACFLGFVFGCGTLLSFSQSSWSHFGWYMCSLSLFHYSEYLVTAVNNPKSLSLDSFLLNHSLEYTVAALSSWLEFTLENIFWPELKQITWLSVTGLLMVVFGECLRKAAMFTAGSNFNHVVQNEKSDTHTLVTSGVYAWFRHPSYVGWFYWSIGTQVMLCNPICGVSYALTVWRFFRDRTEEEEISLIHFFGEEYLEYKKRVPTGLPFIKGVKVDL
UniProt Q53FT3: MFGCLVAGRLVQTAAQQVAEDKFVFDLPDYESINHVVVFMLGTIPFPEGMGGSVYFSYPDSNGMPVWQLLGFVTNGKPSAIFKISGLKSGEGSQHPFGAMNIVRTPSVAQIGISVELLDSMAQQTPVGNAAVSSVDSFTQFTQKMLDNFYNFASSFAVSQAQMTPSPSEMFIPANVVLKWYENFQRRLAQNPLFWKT
UniProt Q9UMF0: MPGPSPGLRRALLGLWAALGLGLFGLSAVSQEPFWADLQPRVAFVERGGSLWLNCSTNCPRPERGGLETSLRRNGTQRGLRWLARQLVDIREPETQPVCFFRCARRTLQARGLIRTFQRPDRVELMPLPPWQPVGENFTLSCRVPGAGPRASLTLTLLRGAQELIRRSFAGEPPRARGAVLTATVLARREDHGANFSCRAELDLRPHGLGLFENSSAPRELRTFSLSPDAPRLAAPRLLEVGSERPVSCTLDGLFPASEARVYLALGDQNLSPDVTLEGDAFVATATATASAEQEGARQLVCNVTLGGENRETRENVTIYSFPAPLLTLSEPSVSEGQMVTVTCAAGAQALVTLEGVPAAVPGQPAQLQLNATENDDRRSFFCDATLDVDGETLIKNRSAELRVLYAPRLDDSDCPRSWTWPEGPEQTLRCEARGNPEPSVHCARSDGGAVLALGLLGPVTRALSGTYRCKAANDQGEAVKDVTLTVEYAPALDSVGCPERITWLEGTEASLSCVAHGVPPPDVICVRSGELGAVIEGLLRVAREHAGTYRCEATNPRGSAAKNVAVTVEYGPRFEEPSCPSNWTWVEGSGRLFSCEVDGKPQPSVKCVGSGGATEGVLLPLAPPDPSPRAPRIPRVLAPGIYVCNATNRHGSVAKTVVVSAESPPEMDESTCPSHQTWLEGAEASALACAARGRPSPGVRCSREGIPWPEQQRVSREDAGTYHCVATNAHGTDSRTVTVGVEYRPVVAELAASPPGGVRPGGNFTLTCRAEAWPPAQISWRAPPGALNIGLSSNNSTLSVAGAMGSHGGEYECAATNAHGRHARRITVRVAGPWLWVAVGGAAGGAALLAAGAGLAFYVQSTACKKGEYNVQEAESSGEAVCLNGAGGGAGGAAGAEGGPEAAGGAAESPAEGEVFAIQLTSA
UniProt Q5SSJ5: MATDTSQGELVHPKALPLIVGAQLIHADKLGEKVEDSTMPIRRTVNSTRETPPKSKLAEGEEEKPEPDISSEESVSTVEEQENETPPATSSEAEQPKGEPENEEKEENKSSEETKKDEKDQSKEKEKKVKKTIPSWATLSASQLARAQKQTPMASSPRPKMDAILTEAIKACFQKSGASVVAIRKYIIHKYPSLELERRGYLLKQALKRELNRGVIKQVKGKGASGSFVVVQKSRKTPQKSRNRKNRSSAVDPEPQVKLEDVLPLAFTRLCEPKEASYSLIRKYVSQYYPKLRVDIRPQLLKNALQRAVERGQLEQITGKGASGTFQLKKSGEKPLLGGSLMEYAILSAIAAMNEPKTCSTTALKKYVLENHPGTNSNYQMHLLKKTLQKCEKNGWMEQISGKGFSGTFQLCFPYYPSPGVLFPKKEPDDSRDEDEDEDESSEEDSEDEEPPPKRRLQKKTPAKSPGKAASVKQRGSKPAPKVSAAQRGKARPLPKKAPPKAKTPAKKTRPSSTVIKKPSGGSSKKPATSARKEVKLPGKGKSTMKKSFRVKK
UniProt Q3SXM5: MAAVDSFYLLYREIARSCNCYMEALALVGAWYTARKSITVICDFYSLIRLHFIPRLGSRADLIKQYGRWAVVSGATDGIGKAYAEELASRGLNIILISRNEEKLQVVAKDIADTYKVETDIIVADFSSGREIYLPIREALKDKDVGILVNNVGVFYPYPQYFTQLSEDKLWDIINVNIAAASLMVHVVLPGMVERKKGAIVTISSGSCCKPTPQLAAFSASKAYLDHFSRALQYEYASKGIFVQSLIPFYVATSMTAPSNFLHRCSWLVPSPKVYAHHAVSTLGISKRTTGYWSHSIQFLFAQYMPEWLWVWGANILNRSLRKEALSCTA
UniProt O75146: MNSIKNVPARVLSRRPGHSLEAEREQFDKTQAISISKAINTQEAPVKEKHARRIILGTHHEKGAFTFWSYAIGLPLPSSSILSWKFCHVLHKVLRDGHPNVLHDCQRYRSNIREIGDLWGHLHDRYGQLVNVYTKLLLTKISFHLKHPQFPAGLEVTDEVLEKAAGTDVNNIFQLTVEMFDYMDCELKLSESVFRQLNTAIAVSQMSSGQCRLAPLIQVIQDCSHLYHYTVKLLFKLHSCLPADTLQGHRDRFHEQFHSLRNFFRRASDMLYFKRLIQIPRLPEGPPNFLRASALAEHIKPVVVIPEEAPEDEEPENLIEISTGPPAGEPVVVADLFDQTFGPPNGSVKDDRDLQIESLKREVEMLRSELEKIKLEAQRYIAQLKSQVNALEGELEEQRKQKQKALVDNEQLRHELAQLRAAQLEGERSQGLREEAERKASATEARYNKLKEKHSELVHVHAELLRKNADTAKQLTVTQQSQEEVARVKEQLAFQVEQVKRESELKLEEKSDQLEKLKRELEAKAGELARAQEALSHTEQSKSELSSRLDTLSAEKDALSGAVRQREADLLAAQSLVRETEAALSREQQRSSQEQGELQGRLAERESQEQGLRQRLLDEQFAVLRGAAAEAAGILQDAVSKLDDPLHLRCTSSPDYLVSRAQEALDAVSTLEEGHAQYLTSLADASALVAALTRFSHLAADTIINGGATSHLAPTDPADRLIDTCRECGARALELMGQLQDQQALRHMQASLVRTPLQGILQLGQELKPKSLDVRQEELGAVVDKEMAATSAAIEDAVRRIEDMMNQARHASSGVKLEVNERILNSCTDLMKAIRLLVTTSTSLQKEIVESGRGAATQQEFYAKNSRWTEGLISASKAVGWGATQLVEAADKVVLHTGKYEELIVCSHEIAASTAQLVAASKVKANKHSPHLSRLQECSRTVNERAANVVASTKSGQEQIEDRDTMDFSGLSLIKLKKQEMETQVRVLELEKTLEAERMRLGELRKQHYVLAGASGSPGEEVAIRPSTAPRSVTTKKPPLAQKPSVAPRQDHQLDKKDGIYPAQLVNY

Assays:
Experiment in all cases: log2 fold change, soluble protein after heating vs DMSO (PISA); higher = thermal stabilisation; K562 cells, 10 uM, 30 min; active = over 0.2 and 3.5 SD of the protein, either way, in both replicates (recomputed)
IRAK-1-4 Inhibitor I = compound: C1COCCN1CCN2C3=CC=CC=C3N=C2NC(=O)C4=CC(=CC=C4)[N+](=O)[O-] [IRAK-1-4 Inhibitor I]
Method in brief: (§1)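 Aliquots of K562 cells (2×10^6 cells/mL) treated with 10 μM compound for 30 min were heated for 3 min over 48°C-58°C. After pooling and extraction in PBS with 0.5% NP-40 at 4°C, soluble protein from a 21,000xg, 90 min spin was quantified by TMTpro 16plex LC-MS/MS with channel sums equalised. Thermal stability is expressed against control samples, from duplicates, as a log2 fold change.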

ibrutinib = compound: C=CC(=O)N1CCC[C@@H](n2nc(-c3ccc(Oc4ccccc4)cc3)c3c(N)ncnc32)C1 [ibrutinib]
Method in brief: as §1

[1] = compound: CC(=O)c1cnc2ccc(-c3cc(Cl)c(O)c(Cl)c3)nc2c1N[C@H]1CC[C@H](CN(C)C)CC1
Method in brief: as §1

ralimetinib = compound: CC(C)(C)Cn1c(N)nc2ccc(-c3[nH]c(C(C)(C)C)nc3-c3ccc(F)cc3)nc21 [ralimetinib]
Method in brief: as §1

[2] = compound: CC(C)(O)CC(=O)NCCn1ccc2ncnc(Nc3ccc(Oc4cccc(C(F)(F)F)c4)c(Cl)c3)c21
Method in brief: as §1

[3] = compound: CC(C)C1=C2N=C(C=C(N2N=C1)NCC3=CC=CC=C3)NCCCCCCN
Method in brief: as §1

[4] = compound: CC(C)C[C@@H](C=O)NC(=O)[C@H](CC(C)C)NC(=O)[C@H](CC(C)C)NC(=O)OCc1ccccc1
Method in brief: as §1

pinometostat = compound: CC(C)N(C[C@H]1O[C@@H](n2cnc3c(N)ncnc32)[C@H](O)[C@@H]1O)[C@H]1C[C@@H](CCc2nc3cc(C(C)(C)C)ccc3[nH]2)C1 [pinometostat]
Method in brief: as §1

[5] = compound: CC1=C(C2=C(C=C1)C(=O)C3=CC=CC=C3N2CCCN)C
Method in brief: as §1

[6] = compound: CC1=C(C=C(C=C1)NC(=O)C2=CC(=CC=C2)C(C)(C)C#N)NC3=CC4=C(C=C3)N=CN(C4=O)C
Method in brief: as §1

[7] = compound: CC1=C(C=C(C=C1)NC(=O)C2=CC(=CC=C2)N(C)C)NC(=O)C3=CC=C(C=C3)O
Method in brief: as §1

[8] = compound: CC1=CC=C(C=C1)SC2=C3C=C(SC3=CN=C2)C(=O)N
Method in brief: as §1

[9] = compound: CC1=NC(=CC=C1)C2=C(N=C(N2)C(C)(C)C)C3=CC4=NC=CN=C4C=C3
Method in brief: as §1

Nexturastat A = compound: CCCCN(Cc1ccc(C(=O)NO)cc1)C(=O)Nc1ccccc1 [Nexturastat A]
Method in brief: as §1

vemurafenib = compound: CCCS(=O)(=O)Nc1ccc(F)c(C(=O)c2c[nH]c3ncc(-c4ccc(Cl)cc4)cc23)c1F [vemurafenib]
Method in brief: as §1

[10] = compound: CCCS(=O)(=O)Nc1ccc(F)c(C(=O)c2c[nH]c3ncc(Cl)cc23)c1F
Method in brief: as §1

[11] = compound: CCCc1cc(C)[nH]c(=O)c1CNC(=O)c1cc(-c2ccnc(N3CCN(C)CC3)c2)cc2c1cnn2C(C)C
Method in brief: as §1

givinostat = compound: CCN(CC)Cc1ccc2cc(COC(=O)Nc3ccc(C(=O)NO)cc3)ccc2c1 [givinostat]
Method in brief: as §1

barasertib = compound: CCN(CCCOc1ccc2c(Nc3cc(CC(=O)Nc4cccc(F)c4)[nH]n3)ncnc2c1)CCOP(=O)(O)O [barasertib]
Method in brief: as §1

[12] = compound: CC1=C(C(CC(=O)N1)C2=CC=C(C=C2)C(F)(F)F)C(=O)NC3=C(C=C4C(=C3)C=NN4)F
Method in brief: as §1

Measured: log2 fold change

ICMT (UniProt O60725)
inactive: IRAK-1-4 Inhibitor I 0.039 | ibrutinib 0.182 | [1] 0.248 | ralimetinib 0.163 | [2] -0.032 | [4] -0.051 | pinometostat -0.02 | [5] 0.147 | [6] -0.048 | [7] -0.085 | [8] -0.079 | [9] 0.072 | Nexturastat A -0.204 | vemurafenib 0 | [10] -0.103 | [11] 0.064 | givinostat -0.037 | barasertib 0.022
active: [3] -0.472

HPCAL1 (UniProt P37235)
inactive: IRAK-1-4 Inhibitor I 0.02 | ibrutinib -0.015 | [1] 0.028 | ralimetinib -0.117 | [2] -0.018 | [3] -0.081 | [4] -0.015 | pinometostat -0.003 | [5] -0.041 | [6] -0.022 | [7] 0.012 | [8] 0.048 | [9] 0.032 | Nexturastat A -0.092 | vemurafenib -0.017 | [10] 0.005 | [11] -0.076 | givinostat -0.041 | barasertib 0.019

HIKESHI (UniProt Q53FT3)
inactive: IRAK-1-4 Inhibitor I 0.013 | ibrutinib -0.041 | [1] 0.023 | [2] -0.045 | [3] -0.007 | [4] -0.194 | pinometostat 0.062 | [5] 0.061 | [6] -0.138 | [7] -0.051 | [8] 0.003 | [9] -0.011 | Nexturastat A -0.037 | vemurafenib 0.027 | [10] 0.003 | [11] -0.033 | givinostat -0.008 | barasertib 0.011
active: ralimetinib -0.305

HIST2H2AA3 (UniProt Q6FI13)
inactive: IRAK-1-4 Inhibitor I -0.099 | ibrutinib 0.175 | [1] 0.186 | ralimetinib 0.195 | [2] 0.061 | [3] 0.088 | [4] 0.229 | pinometostat 0.42 | [12] -0.114 | [5] 0.956 | [7] -0.032 | [9] -0.065 | Nexturastat A 0.989 | vemurafenib -0.292 | [11] 0.194 | givinostat 0.234 | barasertib -0.32

2 neighbouring entries already listed, quoted:
HPCAL1 (UniProt P37235)
inactive: IRAK-1-4 Inhibitor I 0.02 | ibrutinib -0.015 | [1] 0.028 | ralimetinib -0.117 | [2] -0.018 | [3] -0.081 | [4] -0.015 | pinometostat -0.003 | [5] -0.041 | [6] -0.022 | [7] 0.012 | [8] 0.048 | [9] 0.032 | Nexturastat A -0.092 | vemurafenib -0.017 | [10] 0.005 | [11] -0.076 | givinostat -0.041 | barasertib 0.019

HIKESHI (UniProt Q53FT3)
inactive: IRAK-1-4 Inhibitor I 0.013 | ibrutinib -0.041 | [1] 0.023 | [2] -0.045 | [3] -0.007 | [4] -0.194 | pinometostat 0.062 | [5] 0.061 | [6] -0.138 | [7] -0.051 | [8] 0.003 | [9] -0.011 | Nexturastat A -0.037 | vemurafenib 0.027 | [10] 0.003 | [11] -0.033 | givinostat -0.008 | barasertib 0.011
active: ralimetinib -0.305

(listing goes on)

HIST2H3A (UniProt Q71DI3)
inactive: IRAK-1-4 Inhibitor I -0.269 | ibrutinib 0.081 | [1] -0.012 | ralimetinib 0.292 | [2] -0.021 | [3] -0.225 | [4] 0.18 | pinometostat 0.29 | [5] 0.727 | [6] -0.1 | [7] -0.004 | [8] -0.119 | [9] -0.056 | vemurafenib -0.203 | [10] 0.592 | [11] 0.037 | givinostat 0.321 | barasertib -0.148
active: Nexturastat A 0.921

ICAM5 (UniProt Q9UMF0)
inactive: IRAK-1-4 Inhibitor I 0.045 | ibrutinib -0.123 | [1] -0.143 | ralimetinib 0.034 | [2] 0.118 | [3] -0.006 | [4] 0.043 | pinometostat -0.03 | [12] 0.044 | [5] 0.079 | [6] -0.002 | [7] 0.069 | [9] -0.079 | Nexturastat A 0.113 | vemurafenib 0.075 | [11] -0.08 | givinostat 0.098 | barasertib 0.087

HP1BP3 (UniProt Q5SSJ5)
inactive: IRAK-1-4 Inhibitor I -0.097 | ibrutinib 0.003 | [1] 0.051 | ralimetinib 0.089 | [2] -0.013 | [3] -0.031 | [4] 0.063 | pinometostat 0.092 | [6] 0.03 | [7] -0.026 | [8] -0.025 | [9] 0.017 | Nexturastat A 0.108 | vemurafenib -0.014 | [10] 0.018 | [11] -0.001 | givinostat 0.031 | barasertib -0.129
active: [5] -0.387

HSDL1 (UniProt Q3SXM5)
inactive: IRAK-1-4 Inhibitor I -0.004 | ibrutinib 0.025 | [1] -0.003 | ralimetinib -0.063 | [2] 0.035 | [3] 0.035 | [4] -0.041 | pinometostat -0.033 | [12] -0.031 | [5] 0.035 | [6] -0.017 | [7] 0.012 | [8] 0.043 | [9] -0.039 | Nexturastat A -0.044 | vemurafenib -0.051 | [10] 0.06 | [11] -0.044 | givinostat -0.01 | barasertib 0.001

HIP1R (UniProt O75146)
inactive: IRAK-1-4 Inhibitor I 0.029 | ibrutinib -0.027 | [1] -0.022 | ralimetinib 0.01 | [2] -0.034 | [3] -0.059 | [4] -0.003 | pinometostat 0 | [5] 0.138 | [6] -0.028 | [7] -0.053 | [8] 0.003 | [9] -0.002 | Nexturastat A -0.047 | vemurafenib -0.026 | [10] 0.036 | [11] -0.006 | givinostat 0.059 | barasertib 0.041
